{"source": "patent US5616556A", "about": "“Method of treating rheumatoid arthritis and osteoarthrosis using tetrahydro WS9326A” (Fujisawa Pharmaceutical Co., Ltd., priority 1990, dated 1997)", "key": {"[1]": {"system": "carrageenin-induced rat knee edema", "experiment": "Effect on carrageenin-induced rat knee edema (cells in synovial fluid)", "format": "in vivo, Wistar rats", "details": "for No. of cells in synovial fluid: synovial fluid collected after 4 hours, vehicle 675.2 ± 105.7; for % Inhibition: inhibition of cell number in synovial fluid vs vehicle"}, "[2]": {"system": "charcoal transport in mice (small intestine)", "experiment": "Effect on charcoal transport in mice", "format": "in vivo, ICR mice", "details": "charcoal/castor oil orally after 10 minutes, measured 20 minutes later, vehicle 70.5 ± 2.9"}}, "note": "At least one peptide structure holds a part that was inferred or is arguable (an end, a ring closure or a residue). Starred links: 1 amine or outer side, 2 acyl side, 3 side chain; linkers in the order of their positions; H or OH if unused. Positions of bridges follow the written chain, without caps; N, C: chain ends. Non-standard residues stand in square brackets, D forms with d. Residues, ends and D or L forms follow the SMILES beside them. *: point of attachment. X2 = CN(/C(=C/c1ccc(O)cc1)C(=O)[*:2])[*:1]; aThr = C[C@H](O)[C@H](N)C(=O)O; X1 = CCCCCc1ccccc1CCC(=O)*", "data": [{"smiles": "CCCCCc1ccccc1CCC(=O)N[C@@H]1C(=O)N(C)/C(=C/c2ccc(O)cc2)C(=O)N[C@@H](CC(C)C)C(=O)N[C@H](Cc2ccccc2)C(=O)N[C@@H]([C@H](C)O)C(=O)N[C@@H](CC(N)=O)C(=O)N[C@@H](CO)C(=O)O[C@@H]1C", "note": "[tetrahydro-WS9326A] (X1-T[X2]L[dF][aThr]NS; ester 1-C)", "values": [{"measurement": "No. of cells in synovial fluid", "setting": "[1]; 1 μg into the knee joint 15 minutes before carrageenin", "result": "543.2 ± 135.1 × 10^4 /ml"}, {"measurement": "% Inhibition", "setting": "[1]; 1 μg into the knee joint", "result": 19.5, "unit": "%"}, {"measurement": "No. of cells in synovial fluid", "setting": "[1]; 10 μg into the knee joint 15 minutes before carrageenin", "result": "302.8 ± 77.1 × 10^4 /ml"}, {"measurement": "% Inhibition", "setting": "[1]; 10 μg into the knee joint", "result": 55.2, "unit": "%"}, {"measurement": "No. of cells in synovial fluid", "setting": "[1]; 100 μg into the knee joint 15 minutes before carrageenin", "result": "60.8 ± 11.8 × 10^4 /ml"}, {"measurement": "% Inhibition", "setting": "[1]; 100 μg into the knee joint", "result": 91.0, "unit": "%"}, {"measurement": "% Transport", "setting": "[2]; 1 mg/kg intraperitoneally", "result": "66.9 ± 3.0", "unit": "%"}, {"measurement": "% Transport", "setting": "[2]; 10 mg/kg intraperitoneally", "result": "51.3 ± 1.9", "unit": "%"}]}]}
